The other results are listed elsewhere or left out.
Legend:
Assay in all cases: log2 fold change, soluble protein after heating vs DMSO (PISA); higher = thermal stabilisation; K562 lysate, 10 uM; active = over 0.2 and 3.5 SD of the protein, either way, in both replicates (recomputed)
[1] = compound: C#Cc1cccc(Nc2ncnc3cc(OCCOC)c(OCCOC)cc23)c1 [erlotinib]
Procedure, shortened: (§1)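 Thermal stability, expressed as log-two fold change relative to solvent controls, is given from duplicates. Crude K562 extract in PBS pH 7.4 with 1 mM MgCl2, at 1 mg/mL protein, was treated with 10 μM compound for 30 min and heated in aliquots for 3 min across 48°C-58°C. After pooling, adjustment to 0.5% NP-40 at 4°C and centrifugation at 21,000xg for 90 min, supernatant protein was measured by TMTpro 16plex LC-MS/MS with channel sums equalised.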

By UniProt entry, the sequences of proteins in these tests, tags left out. Where a name states a change or a piece, a line headed by the entry shows the natural chain unless it says otherwise.
UniProt Q15814: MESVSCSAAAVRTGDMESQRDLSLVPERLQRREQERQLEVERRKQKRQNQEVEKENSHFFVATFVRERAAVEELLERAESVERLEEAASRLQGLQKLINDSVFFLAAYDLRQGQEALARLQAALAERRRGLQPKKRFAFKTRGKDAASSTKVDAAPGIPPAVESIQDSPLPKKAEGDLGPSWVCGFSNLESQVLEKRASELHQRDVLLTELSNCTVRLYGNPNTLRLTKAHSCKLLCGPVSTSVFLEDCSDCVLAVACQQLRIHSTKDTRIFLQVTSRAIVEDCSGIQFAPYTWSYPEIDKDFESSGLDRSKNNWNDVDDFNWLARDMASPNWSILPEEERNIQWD
UniProt Q14188: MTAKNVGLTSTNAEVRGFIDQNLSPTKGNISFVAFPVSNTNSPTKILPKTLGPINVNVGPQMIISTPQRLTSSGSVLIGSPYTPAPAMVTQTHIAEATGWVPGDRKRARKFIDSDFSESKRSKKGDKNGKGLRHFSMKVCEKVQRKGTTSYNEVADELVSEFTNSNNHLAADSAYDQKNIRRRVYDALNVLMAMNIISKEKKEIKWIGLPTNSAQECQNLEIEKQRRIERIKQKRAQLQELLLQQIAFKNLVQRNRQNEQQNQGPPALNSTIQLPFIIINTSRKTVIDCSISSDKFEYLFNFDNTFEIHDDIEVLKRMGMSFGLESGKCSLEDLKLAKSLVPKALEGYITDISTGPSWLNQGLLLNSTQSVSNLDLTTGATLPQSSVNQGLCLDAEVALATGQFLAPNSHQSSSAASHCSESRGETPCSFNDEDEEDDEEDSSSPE
UniProt Q9UK61: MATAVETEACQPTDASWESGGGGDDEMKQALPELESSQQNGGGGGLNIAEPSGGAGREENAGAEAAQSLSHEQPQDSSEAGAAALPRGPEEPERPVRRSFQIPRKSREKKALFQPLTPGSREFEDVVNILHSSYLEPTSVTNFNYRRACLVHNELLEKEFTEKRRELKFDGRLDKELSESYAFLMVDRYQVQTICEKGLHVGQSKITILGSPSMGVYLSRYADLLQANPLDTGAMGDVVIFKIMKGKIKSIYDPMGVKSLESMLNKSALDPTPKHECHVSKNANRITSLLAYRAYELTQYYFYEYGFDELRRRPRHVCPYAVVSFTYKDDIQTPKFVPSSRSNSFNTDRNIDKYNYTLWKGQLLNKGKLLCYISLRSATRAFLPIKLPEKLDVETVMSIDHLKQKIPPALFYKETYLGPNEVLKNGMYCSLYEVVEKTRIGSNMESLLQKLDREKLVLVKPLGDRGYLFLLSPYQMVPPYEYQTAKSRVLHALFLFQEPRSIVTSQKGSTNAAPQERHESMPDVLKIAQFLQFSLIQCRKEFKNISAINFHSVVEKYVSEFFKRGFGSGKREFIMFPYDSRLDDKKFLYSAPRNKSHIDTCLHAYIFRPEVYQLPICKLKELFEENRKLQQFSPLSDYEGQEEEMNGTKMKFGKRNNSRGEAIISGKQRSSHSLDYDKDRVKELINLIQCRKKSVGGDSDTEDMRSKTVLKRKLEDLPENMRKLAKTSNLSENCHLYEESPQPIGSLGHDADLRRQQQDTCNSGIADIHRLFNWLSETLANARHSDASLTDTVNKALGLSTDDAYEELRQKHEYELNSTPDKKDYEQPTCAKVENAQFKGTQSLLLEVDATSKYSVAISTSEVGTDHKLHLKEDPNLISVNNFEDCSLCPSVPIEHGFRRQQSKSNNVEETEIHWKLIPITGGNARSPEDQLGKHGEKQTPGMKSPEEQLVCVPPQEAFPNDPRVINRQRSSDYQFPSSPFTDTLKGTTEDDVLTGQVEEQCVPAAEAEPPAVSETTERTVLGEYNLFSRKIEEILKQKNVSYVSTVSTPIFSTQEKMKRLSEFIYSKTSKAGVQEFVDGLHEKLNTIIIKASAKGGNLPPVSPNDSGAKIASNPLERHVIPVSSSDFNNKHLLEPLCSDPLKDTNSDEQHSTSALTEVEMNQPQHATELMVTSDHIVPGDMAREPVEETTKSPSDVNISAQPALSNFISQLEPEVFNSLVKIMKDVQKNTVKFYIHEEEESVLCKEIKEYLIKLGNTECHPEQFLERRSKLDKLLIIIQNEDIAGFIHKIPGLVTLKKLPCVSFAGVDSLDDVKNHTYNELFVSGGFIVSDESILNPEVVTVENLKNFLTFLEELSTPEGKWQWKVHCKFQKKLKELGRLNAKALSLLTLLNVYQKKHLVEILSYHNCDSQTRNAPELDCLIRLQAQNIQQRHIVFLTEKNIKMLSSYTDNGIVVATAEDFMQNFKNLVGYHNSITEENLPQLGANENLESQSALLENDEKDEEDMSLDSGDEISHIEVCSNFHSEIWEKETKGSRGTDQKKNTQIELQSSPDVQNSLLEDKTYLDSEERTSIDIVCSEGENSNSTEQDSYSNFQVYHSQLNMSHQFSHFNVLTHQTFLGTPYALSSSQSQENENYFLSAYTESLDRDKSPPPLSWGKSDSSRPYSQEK
UniProt Q8N4U5: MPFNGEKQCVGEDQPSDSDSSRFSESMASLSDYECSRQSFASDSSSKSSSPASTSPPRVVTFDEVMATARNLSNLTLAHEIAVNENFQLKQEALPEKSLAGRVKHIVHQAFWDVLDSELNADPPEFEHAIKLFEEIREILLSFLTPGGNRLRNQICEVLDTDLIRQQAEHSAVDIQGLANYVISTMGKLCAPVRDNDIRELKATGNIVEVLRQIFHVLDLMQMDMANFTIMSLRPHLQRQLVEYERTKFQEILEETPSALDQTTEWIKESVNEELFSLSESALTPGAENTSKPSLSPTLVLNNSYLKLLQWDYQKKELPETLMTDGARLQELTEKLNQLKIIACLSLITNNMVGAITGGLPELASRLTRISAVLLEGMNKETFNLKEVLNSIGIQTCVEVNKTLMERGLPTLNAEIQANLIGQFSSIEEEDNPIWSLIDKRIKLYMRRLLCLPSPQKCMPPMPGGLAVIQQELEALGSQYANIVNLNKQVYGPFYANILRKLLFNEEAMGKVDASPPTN
UniProt Q9BXI6: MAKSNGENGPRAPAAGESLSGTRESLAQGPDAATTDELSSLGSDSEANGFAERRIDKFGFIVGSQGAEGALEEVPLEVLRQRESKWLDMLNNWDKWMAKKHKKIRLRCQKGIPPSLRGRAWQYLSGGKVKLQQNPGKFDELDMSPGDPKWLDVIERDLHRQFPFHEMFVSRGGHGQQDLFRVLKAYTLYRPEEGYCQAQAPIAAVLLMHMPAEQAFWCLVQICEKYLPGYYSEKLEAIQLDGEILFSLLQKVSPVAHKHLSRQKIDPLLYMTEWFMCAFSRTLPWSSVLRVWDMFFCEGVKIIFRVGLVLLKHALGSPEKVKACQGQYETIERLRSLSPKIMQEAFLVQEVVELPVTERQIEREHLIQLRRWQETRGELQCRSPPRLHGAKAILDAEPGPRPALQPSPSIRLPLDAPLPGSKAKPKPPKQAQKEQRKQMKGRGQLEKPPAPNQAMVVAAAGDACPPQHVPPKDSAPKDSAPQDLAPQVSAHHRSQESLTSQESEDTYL
UniProt P28347, whole entry, looked up: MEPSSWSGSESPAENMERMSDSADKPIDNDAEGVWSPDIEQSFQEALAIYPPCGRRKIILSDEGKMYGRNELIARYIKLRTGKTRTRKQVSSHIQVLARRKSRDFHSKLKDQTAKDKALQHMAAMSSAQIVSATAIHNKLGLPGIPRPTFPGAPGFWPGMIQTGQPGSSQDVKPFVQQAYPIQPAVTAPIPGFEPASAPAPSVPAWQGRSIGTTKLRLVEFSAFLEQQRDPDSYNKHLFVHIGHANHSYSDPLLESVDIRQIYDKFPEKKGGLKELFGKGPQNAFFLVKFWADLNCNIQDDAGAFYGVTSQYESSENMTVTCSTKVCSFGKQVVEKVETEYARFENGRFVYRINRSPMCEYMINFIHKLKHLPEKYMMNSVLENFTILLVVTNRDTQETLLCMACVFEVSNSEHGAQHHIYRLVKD
UniProt Q96MN5: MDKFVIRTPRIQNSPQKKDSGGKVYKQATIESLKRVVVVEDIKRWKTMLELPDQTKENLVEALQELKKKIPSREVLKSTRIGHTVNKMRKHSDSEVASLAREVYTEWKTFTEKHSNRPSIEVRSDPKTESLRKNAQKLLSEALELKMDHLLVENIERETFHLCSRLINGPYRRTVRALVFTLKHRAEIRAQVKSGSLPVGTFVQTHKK
UniProt Q3MII6: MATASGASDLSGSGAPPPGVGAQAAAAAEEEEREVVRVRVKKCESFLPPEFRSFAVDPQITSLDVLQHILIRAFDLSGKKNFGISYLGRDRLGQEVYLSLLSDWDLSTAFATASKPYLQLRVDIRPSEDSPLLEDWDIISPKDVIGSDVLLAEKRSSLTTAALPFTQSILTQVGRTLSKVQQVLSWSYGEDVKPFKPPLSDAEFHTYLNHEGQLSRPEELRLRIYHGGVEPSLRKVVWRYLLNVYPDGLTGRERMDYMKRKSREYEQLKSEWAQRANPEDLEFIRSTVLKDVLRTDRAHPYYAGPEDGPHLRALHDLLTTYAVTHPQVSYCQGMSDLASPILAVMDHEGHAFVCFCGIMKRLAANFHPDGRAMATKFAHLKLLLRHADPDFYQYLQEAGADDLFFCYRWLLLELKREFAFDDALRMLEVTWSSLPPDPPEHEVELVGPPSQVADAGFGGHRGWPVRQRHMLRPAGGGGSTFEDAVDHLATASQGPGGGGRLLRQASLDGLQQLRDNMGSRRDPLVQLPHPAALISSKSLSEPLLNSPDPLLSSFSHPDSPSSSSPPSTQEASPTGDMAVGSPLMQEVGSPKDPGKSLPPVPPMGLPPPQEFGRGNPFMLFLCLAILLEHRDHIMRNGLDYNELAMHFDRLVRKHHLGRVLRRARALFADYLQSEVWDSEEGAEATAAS
UniProt Q9UI15: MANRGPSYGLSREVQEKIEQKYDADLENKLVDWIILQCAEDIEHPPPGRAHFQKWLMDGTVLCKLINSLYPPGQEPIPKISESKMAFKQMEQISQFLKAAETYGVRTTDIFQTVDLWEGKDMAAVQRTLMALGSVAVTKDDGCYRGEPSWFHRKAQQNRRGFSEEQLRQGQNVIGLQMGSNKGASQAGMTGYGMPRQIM
UniProt Q6P1N9: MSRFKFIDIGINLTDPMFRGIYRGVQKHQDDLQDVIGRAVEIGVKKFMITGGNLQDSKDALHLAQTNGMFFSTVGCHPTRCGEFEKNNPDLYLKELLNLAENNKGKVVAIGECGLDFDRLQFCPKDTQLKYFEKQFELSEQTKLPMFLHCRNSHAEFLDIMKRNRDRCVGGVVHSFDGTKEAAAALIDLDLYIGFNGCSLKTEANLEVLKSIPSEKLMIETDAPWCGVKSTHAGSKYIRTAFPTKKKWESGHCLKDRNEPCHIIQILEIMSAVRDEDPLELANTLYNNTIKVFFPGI
UniProt Q86SX3: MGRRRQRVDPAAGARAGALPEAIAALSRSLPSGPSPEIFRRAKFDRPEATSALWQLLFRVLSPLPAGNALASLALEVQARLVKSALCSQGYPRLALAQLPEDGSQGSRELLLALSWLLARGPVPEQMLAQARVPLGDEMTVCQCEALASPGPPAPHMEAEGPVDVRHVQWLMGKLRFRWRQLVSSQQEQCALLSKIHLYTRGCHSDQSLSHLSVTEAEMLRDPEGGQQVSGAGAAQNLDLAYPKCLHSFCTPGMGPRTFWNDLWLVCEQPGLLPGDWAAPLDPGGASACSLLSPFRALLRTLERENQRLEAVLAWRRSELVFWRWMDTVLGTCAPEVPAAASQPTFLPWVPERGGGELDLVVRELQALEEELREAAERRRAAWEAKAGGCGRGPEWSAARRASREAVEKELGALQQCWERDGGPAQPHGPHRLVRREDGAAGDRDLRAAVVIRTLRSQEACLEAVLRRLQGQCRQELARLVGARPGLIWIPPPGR
UniProt Q86VP1, whole entry, looked up: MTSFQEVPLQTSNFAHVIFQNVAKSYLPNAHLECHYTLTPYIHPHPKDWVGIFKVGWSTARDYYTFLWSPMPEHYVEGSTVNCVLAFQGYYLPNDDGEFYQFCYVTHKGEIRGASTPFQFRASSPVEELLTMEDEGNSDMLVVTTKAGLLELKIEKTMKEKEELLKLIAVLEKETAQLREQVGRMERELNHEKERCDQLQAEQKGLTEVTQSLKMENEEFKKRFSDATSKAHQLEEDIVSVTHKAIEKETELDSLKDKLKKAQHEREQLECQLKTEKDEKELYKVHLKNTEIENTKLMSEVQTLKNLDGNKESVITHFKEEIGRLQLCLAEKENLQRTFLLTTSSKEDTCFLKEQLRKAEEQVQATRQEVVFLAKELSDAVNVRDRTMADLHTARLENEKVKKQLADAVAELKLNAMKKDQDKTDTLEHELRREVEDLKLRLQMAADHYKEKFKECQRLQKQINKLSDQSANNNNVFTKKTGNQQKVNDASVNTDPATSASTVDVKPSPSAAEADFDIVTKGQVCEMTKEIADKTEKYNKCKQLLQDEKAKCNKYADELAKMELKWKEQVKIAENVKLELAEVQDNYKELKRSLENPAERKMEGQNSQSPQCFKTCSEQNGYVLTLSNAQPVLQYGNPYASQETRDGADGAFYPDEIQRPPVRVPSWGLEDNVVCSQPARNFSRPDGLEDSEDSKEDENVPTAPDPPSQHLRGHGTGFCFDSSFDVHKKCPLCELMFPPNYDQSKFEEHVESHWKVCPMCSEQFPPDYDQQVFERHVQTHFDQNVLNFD

[2] = compound: C/C(=N\NC(=O)C1=CC(=CC=C1)S(=O)(=O)N2CCOCC2)/C3=C(C=CC(=C3)Cl)O
Procedure, shortened: as §1

[3] = compound: C1=CC(=CC=C1C2=NC3=C(N2)C=C(C=C3)C(=O)N)OC4=CC=C(C=C4)Cl
Procedure, shortened: as §1

[4] = compound: C1=CC2=C(C=CC(=C2)/C=C\3/C(=O)NC(=NCC4=CC=CS4)S3)N=C1
Procedure, shortened: as §1

[5] = compound: C1=CC2=NC=CN=C2C=C1/C=C/3\C(=O)NC(=O)S3
Procedure, shortened: as §1

[6] = compound: C1=CC=C(C=C1)C2=NC(=C(N2)C3=CC=NC=C3)C4=CC(=C(C=C4)Cl)O
Procedure, shortened: as §1

[7] = compound: C1=CC=C2C(=C1)C3=NNC4=CC=CC(=C43)C2=O
Procedure, shortened: as §1

[8] = compound: C1CCN(C1)C(=O)NC2=CC=CC(=C2)NC3=NC=C(C(=N3)NCCC4=CN=CN4)Br
Procedure, shortened: as §1

[9] = compound: C1CN(CCC1(CC2=CC=C(C=C2)Cl)N)C3=NC=NC4=C3C=CN4
Procedure, shortened: as §1

[10] = compound: C1COCCN1CCN2C3=CC=CC=C3N=C2NC(=O)C4=CC(=CC=C4)[N+](=O)[O-] [IRAK-1-4 Inhibitor I]
Procedure, shortened: as §1

[11] = compound: C=CC(=O)N1CCC[C@@H](n2nc(-c3ccc(Oc4ccccc4)cc3)c3c(N)ncnc32)C1 [ibrutinib]
Procedure, shortened: as §1

[12] = compound: CC(=O)c1cnc2ccc(-c3cc(Cl)c(O)c(Cl)c3)nc2c1N[C@H]1CC[C@H](CN(C)C)CC1
Procedure, shortened: as §1

[13] = compound: CC(C)(C)Cn1c(N)nc2ccc(-c3[nH]c(C(C)(C)C)nc3-c3ccc(F)cc3)nc21 [ralimetinib]
Procedure, shortened: as §1

[14] = compound: CC(C)(O)CC(=O)NCCn1ccc2ncnc(Nc3ccc(Oc4cccc(C(F)(F)F)c4)c(Cl)c3)c21
Procedure, shortened: as §1

[15] = compound: CC(C)C1=C2N=C(C=C(N2N=C1)NCC3=CC=CC=C3)NCCCCCCN
Procedure, shortened: as §1

[16] = compound: CC1=C(C(CC(=O)N1)C2=CC=C(C=C2)C(F)(F)F)C(=O)NC3=C(C=C4C(=C3)C=NN4)F
Procedure, shortened: as §1

[17] = compound: CC1=C(C2=C(C=C1)C(=O)C3=CC=CC=C3N2CCCN)C
Procedure, shortened: as §1

[18] = compound: CC1=C(C=C(C=C1)NC(=O)C2=CC(=CC=C2)C(C)(C)C#N)NC3=CC4=C(C=C3)N=CN(C4=O)C
Procedure, shortened: as §1

[19] = compound: CC1=C(C=C(C=C1)NC(=O)C2=CC(=CC=C2)N(C)C)NC(=O)C3=CC=C(C=C3)O
Procedure, shortened: as §1

[20] = compound: CC1=CC=C(C=C1)SC2=C3C=C(SC3=CN=C2)C(=O)N
Procedure, shortened: as §1

Measured: log2 fold change

TES (UniProt Q9UGI8)
inactive: [1] 0.001 | [2] -0.011 | [3] 0.033 | [4] -0.032 | [5] -0.022 | [6] 0.007 | [7] 0 | [8] -0.006 | [9] 0.03 | [10] -0.002 | [11] -0.016 | [12] -0.01 | [13] -0.02 | [14] -0.016 | [15] -0.008 | [16] -0.04 | [17] -0.026 | [18] 0.058 | [19] -0.006 | [20] -0.008

TBCC (UniProt Q15814)
inactive: [1] -0.005 | [2] 0.048 | [3] 0.007 | [4] 0.023 | [5] -0.002 | [6] 0.011 | [7] 0.027 | [8] -0.002 | [9] 0.03 | [10] -0.006 | [11] 0.003 | [12] 0.012 | [13] 0.002 | [14] -0.061 | [15] -0.009 | [16] -0.048 | [17] -0.029 | [18] -0.008 | [19] 0.008 | [20] -0.008

TFDP2 (UniProt Q14188)
inactive: [1] 0.066 | [2] -0.062 | [3] -0.02 | [4] 0.06 | [5] -0.153 | [6] 0.265 | [7] -0.05 | [10] 0.091 | [11] 0.095 | [12] 0.08 | [13] 0.009 | [14] -0.111 | [15] -0.005 | [16] -0.012 | [17] -0.081 | [18] 0.037 | [19] -0.227 | [20] 0.059

TDRD15 (UniProt B5MCY1)
inactive: [1] -0.096 | [2] -0.026 | [3] 0.021 | [4] -0.016 | [6] 0.025 | [7] -0.064 | [8] -0.056 | [9] 0.026 | [10] -0.013 | [12] -0.025 | [13] -0.04 | [14] -0.01 | [15] -0.061 | [16] 0.029 | [17] -0.071 | [18] 0.066 | [19] 0.051 | [20] -0.006

TEAD2 isoform 4 (UniProt Q15562)
inactive: [1] 0.322 | [2] 0.093 | [3] 0.11 | [4] -0.342 | [7] -0.114 | [15] 0.167 | [17] -0.188

TASOR (UniProt Q9UK61)
inactive: [1] 0.076 | [2] -0.04 | [3] -0.015 | [4] 0.021 | [7] 0.005 | [8] -0.047 | [9] 0.024 | [15] -0.194 | [17] -0.083 | [18] 0.006

TEAD3 (UniProt Q99594)
inactive: [1] -0.248 | [3] -0.075 | [6] -0.03 | [8] 0.244 | [9] -0.019 | [10] 0.093 | [13] 0.042 | [14] -0.226 | [15] -0.144 | [17] -0.032 | [18] 0.055 | [19] -0.015

TCP11L2 (UniProt Q8N4U5)
inactive: [1] 0.213 | [2] 0.15 | [3] -0.049 | [4] 0.074 | [6] 0.149 | [7] 0.068 | [8] 0.017 | [9] 0 | [10] -0.053 | [13] -0.028 | [14] 0.131 | [15] 0.006 | [19] 0.249

TBCEL (UniProt Q5QJ74)
inactive: [1] 0.198 | [2] 0.306 | [3] 0.138 | [4] 0.061 | [5] 0.542 | [6] -0.178 | [7] -0.1 | [10] 0.15 | [11] -0.148 | [13] 0.151 | [14] -0.334 | [15] -0.091 | [16] 0.084 | [17] 0.022 | [19] -0.402

TBC1D10A (UniProt Q9BXI6)
inactive: [1] -0.004 | [3] -0.071 | [5] -0.06 | [6] 0.01 | [10] -0.014 | [11] 0.034 | [12] 0.02 | [13] 0.017 | [14] -0.045 | [15] -0.04 | [16] 0 | [17] 0.019 | [18] -0.009 | [19] 0.022 | [20] 0.003

TEAD1 (UniProt P28347)
inactive: [1] 0.141 | [2] 0.014 | [3] -0.302 | [4] 0.128 | [5] -0.016 | [7] 0.117 | [8] -0.008 | [9] 0.129 | [11] 0.053 | [15] 0.219 | [17] -0.011

TCOF1 isoform 3 (UniProt Q13428)
inactive: [1] -0.067 | [3] -0.058 | [5] 0.01 | [11] 0.11 | [12] 0.086 | [15] -0.034 | [18] 0.064 | [20] -0.333

TET2 (UniProt Q6N021)
inactive: [1] 0.22 | [3] 0.116 | [5] -0.053 | [8] -0.057 | [9] 0.057 | [11] 0.015 | [15] 0.019 | [17] -0.012 | [18] 0.177

TBCK (UniProt Q8TEA7)
inactive: [1] -0.001 | [3] -0.01 | [5] 0.059 | [6] 0.009 | [8] 0.066 | [9] 0.181 | [10] 0.044 | [11] 0.075 | [12] -0.116 | [13] -0.06 | [14] 0.032 | [15] 0.184 | [16] 0.007 | [17] 0.082 | [18] -0.037 | [19] 0.096 | [20] 0.007

TCEANC2 (UniProt Q96MN5)
inactive: [1] -0.107 | [2] 0.107 | [3] -0.04 | [4] 0.09 | [5] 0.045 | [6] -0.018 | [7] 0.119 | [8] -0.114 | [9] -0.042 | [10] 0.137 | [11] 0.046 | [13] -0.042 | [14] -0.07 | [15] 0.047 | [16] -0.069 | [17] 0.077 | [19] 0.014

TCOF1 isoform 6 (UniProt Q13428)
inactive: [1] -0.106 | [3] 0.033 | [6] -0.053 | [10] 0.114 | [12] -0.043 | [13] -0.205 | [14] -0.04 | [15] -0.139 | [16] 0.026 | [17] -0.089 | [18] 0.025 | [19] 0.063 | [20] -0.053

TFPT (UniProt P0C1Z6)
inactive: [1] -0.078 | [3] 0.037 | [5] -0.186 | [11] 0.046 | [12] 0.1 | [15] -0.053 | [17] -0.145 | [20] -0.06

TBC1D25 (UniProt Q3MII6)
inactive: [1] 0.102 | [2] 0.023 | [3] 0.151 | [4] -0.126 | [6] -0.071 | [7] -0.133 | [8] -0.117 | [9] 0.101 | [10] 0.006 | [12] 0.024 | [13] 0.098 | [14] -0.042 | [15] 0.051 | [16] -0.047 | [17] 0.007 | [18] -0.149 | [19] -0.013 | [20] -0.181

TAGLN3 (UniProt Q9UI15)
inactive: [1] -0.016 | [2] 0.036 | [3] 0.101 | [4] -0.064 | [7] -0.057 | [8] -0.023 | [9] 0.019 | [12] -0.138 | [15] 0.249 | [20] -0.03

Two neighbouring entries already listed, quoted:
TBCEL (UniProt Q5QJ74)
inactive: [1] 0.198 | [2] 0.306 | [3] 0.138 | [4] 0.061 | [5] 0.542 | [6] -0.178 | [7] -0.1 | [10] 0.15 | [11] -0.148 | [13] 0.151 | [14] -0.334 | [15] -0.091 | [16] 0.084 | [17] 0.022 | [19] -0.402

TBC1D10A (UniProt Q9BXI6)
inactive: [1] -0.004 | [3] -0.071 | [5] -0.06 | [6] 0.01 | [10] -0.014 | [11] 0.034 | [12] 0.02 | [13] 0.017 | [14] -0.045 | [15] -0.04 | [16] 0 | [17] 0.019 | [18] -0.009 | [19] 0.022 | [20] 0.003

Further records follow.

TATDN1 isoform 2 (UniProt Q6P1N9)
inactive: [1] -0.06 | [2] 0.049 | [3] 0.076 | [4] -0.038 | [5] -0.004 | [6] 0.022 | [7] -0.036 | [10] 0.061 | [11] 0.096 | [12] -0.092 | [13] -0.143 | [14] -0.034 | [15] -0.007 | [18] 0.121 | [19] -0.113 | [20] -0.037

TBC1D12 (UniProt O60347)
inactive: [1] 0.052 | [2] 0.071 | [3] 0.037 | [4] -0.044 | [6] 0.053 | [7] -0.079 | [8] -0.155 | [9] 0.127 | [10] 0.047 | [12] -0.223 | [13] 0.064 | [14] -0.164 | [15] -0.015 | [17] -0.15 | [18] 0.042 | [19] 0.011 | [20] 0.155

TEDC1 (UniProt Q86SX3)
inactive: [1] 0.05 | [3] 0.057 | [6] 0.05 | [8] -0.127 | [9] -0.048 | [10] -0.06 | [12] -0.023 | [13] -0.049 | [14] -0.001 | [15] -0.066 | [16] 0 | [17] -0.033 | [18] -0.018 | [19] 0.082 | [20] -0.024

TAPBP isoform 3 (UniProt O15533)
inactive: [1] 0.026 | [2] -0.067 | [3] 0.187 | [4] -0.078 | [5] 0.142 | [7] 0.075 | [8] 0.011 | [9] 0.011 | [11] 0.151 | [15] -0.01 | [17] -0.081 | [18] -0.022

TAX1BP1 isoform 2 (UniProt Q86VP1)
inactive: [1] -0.018 | [3] -0.042 | [5] 0.138 | [6] -0.079 | [10] -0.002 | [11] -0.005 | [13] 0.073 | [14] -0.092 | [15] -0.069 | [16] -0.296 | [19] 0
